Data published in PMC10416611.
These are yes or no findings as the source states them, for the method shown. Binding seen in cells or lysates may run through a third protein. Here binding means that the protein was enriched with, or labelled near, the bait; the list need not be complete.

Protein sequences, listed by entry. Tags and fused reporters are not part of them.
UniProt O22130: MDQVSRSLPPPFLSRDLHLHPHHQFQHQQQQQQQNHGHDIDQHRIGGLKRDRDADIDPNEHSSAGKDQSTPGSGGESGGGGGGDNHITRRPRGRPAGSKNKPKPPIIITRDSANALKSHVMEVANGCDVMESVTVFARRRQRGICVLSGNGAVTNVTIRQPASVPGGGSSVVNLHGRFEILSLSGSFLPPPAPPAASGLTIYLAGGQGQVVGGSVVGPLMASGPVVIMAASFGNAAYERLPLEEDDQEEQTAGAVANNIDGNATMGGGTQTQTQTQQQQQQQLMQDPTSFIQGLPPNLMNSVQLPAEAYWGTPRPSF
UniProt O49662: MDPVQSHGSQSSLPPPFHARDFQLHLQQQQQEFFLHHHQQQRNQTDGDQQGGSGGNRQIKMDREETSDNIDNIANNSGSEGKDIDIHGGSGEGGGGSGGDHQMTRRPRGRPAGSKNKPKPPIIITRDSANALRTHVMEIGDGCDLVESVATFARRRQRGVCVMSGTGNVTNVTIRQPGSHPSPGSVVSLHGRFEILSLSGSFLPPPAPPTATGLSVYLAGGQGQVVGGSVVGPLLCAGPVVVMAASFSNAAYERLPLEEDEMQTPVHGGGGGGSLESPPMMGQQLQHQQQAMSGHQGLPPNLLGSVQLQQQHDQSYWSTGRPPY
UniProt Q9S7C9: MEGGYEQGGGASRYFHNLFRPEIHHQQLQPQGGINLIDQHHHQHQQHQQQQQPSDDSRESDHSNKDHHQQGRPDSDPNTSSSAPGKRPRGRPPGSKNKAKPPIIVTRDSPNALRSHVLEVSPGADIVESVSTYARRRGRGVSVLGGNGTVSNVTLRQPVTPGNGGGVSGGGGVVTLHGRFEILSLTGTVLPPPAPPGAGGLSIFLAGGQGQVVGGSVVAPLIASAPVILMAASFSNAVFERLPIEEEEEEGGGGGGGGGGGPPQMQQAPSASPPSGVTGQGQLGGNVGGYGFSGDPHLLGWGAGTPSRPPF
UniProt P22953: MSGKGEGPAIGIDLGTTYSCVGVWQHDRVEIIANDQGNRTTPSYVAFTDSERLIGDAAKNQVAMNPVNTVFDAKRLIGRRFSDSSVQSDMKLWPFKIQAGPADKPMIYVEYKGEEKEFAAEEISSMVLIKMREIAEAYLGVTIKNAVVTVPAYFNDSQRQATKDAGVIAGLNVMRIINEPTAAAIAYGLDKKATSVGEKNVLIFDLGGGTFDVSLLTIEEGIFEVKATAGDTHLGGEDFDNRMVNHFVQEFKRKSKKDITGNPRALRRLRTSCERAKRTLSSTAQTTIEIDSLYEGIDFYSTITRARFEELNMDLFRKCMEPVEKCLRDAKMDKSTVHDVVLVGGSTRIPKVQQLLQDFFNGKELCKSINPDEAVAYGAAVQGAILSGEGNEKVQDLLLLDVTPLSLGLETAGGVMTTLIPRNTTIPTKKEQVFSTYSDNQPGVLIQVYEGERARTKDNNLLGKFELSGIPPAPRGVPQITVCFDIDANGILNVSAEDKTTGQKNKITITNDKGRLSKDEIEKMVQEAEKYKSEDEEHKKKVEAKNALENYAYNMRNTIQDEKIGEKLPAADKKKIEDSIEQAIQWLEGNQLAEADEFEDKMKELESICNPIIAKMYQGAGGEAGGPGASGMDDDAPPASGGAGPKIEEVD
UniProt P22954: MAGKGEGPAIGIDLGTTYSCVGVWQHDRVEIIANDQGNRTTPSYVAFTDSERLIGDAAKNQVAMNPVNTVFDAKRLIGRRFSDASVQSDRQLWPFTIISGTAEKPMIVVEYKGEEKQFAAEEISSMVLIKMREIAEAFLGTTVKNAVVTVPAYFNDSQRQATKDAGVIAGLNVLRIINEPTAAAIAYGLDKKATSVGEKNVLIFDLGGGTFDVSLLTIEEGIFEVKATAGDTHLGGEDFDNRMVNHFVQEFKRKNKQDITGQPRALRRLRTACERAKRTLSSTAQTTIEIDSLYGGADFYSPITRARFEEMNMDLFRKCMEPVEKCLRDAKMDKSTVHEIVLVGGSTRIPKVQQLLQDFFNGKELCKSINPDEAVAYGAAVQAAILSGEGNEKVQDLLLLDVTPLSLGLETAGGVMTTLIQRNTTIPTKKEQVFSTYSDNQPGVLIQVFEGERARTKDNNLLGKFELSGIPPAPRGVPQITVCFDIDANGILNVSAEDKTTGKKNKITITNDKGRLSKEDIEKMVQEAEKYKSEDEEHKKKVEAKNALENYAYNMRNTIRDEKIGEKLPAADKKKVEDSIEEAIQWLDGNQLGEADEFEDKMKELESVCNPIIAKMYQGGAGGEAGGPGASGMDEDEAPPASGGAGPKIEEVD

molecular target: GFP-AHL17 fusion protein (Arabidopsis thaliana) (UniProt Q9LTA2); experiment: affinity purification with mass spectrometry; proteins extracted from 7-day-old 35S::GFP-AHL17 Arabidopsis seedlings (methods: roots), precipitated with anti-GFP antibody, mass spectrometry; WT plants as negative control

| binding | Substance |
| --- | --- |
| binds | AHL22 (endogenous) (from UniProt O22130 1-317) |
| binds | AHL24 (endogenous) (from UniProt O49662 1-324) |
| binds | AHL27 (endogenous) (from UniProt Q9S7C9 1-311) |
| binds | HEAT SHOCK PROTEIN 70-1 (endogenous) (from UniProt P22953 1-651) |
| binds | HSP70-2 (endogenous) (from UniProt P22954 1-653) |
